Results on 32 targets are retold here after the supplement of paper PMC10849652.

Chains of the proteins cited; added tags and fusions are not shown. Lines headed by an entry give the natural chain unless they say otherwise; changes in a name come on top.
UniProt O43765: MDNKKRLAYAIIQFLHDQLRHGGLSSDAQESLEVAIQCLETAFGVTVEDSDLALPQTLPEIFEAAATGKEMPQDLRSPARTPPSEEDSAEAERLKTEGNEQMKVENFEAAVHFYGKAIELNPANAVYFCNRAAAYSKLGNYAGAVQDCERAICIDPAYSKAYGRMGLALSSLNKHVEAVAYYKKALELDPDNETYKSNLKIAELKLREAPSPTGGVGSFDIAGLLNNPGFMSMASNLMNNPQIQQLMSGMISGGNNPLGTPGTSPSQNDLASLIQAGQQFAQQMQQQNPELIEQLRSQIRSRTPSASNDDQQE
UniProt Q15427: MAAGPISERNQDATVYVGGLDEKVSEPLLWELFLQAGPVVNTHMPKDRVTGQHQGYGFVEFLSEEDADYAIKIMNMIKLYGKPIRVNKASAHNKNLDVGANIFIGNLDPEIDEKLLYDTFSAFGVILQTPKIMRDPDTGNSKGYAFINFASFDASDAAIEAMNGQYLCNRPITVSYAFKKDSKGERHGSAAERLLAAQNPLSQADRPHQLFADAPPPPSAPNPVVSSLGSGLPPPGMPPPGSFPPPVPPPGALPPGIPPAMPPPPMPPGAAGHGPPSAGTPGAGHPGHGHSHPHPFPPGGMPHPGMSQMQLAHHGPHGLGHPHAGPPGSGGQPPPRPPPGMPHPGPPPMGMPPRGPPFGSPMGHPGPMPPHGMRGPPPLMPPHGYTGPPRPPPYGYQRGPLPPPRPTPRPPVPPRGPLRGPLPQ
UniProt Q9C0C4, whole entry, looked up: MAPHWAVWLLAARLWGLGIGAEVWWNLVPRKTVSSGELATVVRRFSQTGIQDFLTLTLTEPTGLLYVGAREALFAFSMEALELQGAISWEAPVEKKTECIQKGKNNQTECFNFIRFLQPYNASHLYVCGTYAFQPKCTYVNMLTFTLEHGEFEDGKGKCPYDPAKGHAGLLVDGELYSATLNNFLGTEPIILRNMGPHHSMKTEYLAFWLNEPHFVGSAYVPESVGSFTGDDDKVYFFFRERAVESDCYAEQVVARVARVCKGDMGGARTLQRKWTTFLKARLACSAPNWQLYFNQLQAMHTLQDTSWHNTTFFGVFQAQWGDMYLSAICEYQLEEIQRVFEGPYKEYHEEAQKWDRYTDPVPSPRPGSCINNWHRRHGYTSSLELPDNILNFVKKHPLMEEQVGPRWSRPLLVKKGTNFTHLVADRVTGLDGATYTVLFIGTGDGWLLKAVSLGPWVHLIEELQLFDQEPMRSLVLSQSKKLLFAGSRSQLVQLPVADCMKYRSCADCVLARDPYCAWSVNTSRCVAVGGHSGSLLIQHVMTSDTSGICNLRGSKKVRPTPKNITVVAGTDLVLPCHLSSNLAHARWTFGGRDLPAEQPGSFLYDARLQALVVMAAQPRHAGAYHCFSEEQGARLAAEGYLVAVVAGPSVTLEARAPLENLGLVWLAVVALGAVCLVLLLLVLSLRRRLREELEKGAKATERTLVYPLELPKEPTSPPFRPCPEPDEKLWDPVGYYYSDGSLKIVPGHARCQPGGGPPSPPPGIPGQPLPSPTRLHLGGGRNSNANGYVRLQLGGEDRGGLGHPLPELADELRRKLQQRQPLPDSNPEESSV
UniProt P50452: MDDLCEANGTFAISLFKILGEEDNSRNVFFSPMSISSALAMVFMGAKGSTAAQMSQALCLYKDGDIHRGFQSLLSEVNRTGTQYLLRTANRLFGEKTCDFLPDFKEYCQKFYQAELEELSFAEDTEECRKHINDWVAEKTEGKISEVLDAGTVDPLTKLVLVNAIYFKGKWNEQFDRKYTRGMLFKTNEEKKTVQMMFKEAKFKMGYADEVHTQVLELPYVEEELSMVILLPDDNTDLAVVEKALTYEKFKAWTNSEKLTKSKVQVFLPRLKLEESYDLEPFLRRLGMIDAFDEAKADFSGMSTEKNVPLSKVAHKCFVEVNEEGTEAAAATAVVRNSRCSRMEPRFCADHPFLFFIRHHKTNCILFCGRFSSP
UniProt Q15428: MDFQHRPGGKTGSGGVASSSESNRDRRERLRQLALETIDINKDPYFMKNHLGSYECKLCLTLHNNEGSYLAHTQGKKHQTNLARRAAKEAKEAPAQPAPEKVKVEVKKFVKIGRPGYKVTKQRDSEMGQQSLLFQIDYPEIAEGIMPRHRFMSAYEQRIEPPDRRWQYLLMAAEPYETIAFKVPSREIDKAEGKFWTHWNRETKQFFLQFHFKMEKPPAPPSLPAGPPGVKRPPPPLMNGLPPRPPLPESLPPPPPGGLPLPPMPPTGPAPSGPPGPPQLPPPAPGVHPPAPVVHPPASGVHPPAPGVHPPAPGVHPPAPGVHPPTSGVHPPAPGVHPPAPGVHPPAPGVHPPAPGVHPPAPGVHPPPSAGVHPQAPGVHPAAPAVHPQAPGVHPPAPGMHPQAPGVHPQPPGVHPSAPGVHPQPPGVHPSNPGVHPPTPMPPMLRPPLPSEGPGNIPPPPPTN
UniProt P34896: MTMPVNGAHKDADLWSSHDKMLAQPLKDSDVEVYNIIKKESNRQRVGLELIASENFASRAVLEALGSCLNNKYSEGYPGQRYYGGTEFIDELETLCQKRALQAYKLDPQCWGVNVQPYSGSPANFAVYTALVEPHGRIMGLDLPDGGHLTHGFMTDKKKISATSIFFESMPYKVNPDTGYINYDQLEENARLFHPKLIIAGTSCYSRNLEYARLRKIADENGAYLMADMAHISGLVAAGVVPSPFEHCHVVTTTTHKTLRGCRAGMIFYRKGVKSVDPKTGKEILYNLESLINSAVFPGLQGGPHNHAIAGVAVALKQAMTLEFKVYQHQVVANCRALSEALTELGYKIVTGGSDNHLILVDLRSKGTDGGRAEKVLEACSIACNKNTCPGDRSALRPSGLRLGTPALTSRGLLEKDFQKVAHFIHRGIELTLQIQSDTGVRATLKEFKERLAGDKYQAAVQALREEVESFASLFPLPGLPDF
UniProt Q9UHD8: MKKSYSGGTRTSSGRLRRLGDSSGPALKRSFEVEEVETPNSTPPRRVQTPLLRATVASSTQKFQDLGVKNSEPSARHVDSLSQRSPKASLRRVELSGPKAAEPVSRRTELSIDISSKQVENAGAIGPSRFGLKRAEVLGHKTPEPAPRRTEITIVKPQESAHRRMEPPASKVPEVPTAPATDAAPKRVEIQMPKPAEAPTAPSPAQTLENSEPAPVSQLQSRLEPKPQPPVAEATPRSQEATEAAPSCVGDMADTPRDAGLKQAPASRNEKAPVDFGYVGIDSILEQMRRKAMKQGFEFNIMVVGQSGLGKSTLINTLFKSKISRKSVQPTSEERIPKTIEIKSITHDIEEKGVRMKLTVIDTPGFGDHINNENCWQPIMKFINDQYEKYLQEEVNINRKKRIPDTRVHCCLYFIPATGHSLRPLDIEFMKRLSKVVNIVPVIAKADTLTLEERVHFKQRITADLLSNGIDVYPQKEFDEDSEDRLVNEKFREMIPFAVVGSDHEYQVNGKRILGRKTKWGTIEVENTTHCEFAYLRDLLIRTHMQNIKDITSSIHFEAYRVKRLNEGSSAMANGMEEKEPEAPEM
UniProt Q99719: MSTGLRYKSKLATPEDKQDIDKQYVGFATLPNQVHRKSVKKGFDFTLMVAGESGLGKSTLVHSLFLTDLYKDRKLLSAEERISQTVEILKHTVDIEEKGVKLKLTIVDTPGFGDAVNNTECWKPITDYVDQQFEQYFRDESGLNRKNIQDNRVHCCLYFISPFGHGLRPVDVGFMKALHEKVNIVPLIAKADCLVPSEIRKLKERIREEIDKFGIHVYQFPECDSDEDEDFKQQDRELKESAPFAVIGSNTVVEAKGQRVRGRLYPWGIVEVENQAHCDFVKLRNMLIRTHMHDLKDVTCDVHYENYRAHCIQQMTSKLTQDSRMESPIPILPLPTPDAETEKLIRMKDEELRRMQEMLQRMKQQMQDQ
UniProt Q7L8J4: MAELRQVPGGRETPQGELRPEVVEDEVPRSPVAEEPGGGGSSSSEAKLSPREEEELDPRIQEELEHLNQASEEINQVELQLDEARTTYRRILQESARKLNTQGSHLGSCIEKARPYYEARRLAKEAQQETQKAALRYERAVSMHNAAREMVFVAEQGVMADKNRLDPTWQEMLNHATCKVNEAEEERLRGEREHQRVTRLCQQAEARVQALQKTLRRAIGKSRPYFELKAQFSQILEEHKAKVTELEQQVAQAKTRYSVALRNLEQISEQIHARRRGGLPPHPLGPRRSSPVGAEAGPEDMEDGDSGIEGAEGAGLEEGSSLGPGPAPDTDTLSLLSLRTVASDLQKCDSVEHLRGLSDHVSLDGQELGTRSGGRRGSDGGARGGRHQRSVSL
UniProt Q9Y3B4: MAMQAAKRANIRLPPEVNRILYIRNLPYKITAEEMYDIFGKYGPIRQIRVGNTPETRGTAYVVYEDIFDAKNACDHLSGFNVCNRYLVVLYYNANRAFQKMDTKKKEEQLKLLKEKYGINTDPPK
UniProt Q9UBV2: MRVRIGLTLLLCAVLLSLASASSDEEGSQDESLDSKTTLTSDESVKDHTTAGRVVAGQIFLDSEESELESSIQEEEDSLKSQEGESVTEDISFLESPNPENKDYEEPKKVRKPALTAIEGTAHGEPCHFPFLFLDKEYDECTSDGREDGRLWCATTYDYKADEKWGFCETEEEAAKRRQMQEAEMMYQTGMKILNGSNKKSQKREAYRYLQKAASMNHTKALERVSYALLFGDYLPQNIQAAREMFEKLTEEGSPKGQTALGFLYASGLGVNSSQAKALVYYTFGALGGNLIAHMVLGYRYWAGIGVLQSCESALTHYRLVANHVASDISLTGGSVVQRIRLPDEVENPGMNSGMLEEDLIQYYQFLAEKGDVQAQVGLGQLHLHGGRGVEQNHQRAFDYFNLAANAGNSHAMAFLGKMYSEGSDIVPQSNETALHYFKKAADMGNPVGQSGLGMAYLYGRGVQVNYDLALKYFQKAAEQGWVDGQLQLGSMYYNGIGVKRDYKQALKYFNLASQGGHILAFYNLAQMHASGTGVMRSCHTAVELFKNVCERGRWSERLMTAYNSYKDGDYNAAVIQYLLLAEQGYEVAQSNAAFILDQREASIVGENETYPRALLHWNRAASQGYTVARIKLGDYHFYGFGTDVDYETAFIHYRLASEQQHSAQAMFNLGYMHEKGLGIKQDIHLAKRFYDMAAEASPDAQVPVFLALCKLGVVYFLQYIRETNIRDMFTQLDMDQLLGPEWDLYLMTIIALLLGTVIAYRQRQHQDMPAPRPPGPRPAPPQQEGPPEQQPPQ
UniProt Q6P4A7: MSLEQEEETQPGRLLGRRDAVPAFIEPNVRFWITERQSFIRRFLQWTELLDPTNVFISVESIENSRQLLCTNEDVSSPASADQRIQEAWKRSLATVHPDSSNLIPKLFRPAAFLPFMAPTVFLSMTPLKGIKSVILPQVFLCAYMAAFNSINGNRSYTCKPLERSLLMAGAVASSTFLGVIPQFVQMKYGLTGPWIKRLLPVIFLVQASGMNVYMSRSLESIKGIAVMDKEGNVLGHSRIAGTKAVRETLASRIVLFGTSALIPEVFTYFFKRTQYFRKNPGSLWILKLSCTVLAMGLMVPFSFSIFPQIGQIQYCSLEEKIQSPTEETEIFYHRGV
UniProt P05543: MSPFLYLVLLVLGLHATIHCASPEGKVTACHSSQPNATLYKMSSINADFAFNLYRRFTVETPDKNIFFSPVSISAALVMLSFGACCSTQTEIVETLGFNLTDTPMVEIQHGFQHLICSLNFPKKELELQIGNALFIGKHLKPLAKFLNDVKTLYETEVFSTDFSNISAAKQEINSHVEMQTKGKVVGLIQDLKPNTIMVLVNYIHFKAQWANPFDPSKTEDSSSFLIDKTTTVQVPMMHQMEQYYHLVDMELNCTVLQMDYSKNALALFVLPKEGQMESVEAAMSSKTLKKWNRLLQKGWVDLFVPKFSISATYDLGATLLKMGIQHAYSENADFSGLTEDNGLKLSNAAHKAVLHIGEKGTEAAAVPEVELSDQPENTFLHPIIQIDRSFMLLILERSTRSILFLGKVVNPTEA
UniProt Q8IZQ5, whole entry, looked up: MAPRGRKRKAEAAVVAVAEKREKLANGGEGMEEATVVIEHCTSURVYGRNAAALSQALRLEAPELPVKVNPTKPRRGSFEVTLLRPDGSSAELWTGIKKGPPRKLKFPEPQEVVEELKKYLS
UniProt Q8NC51: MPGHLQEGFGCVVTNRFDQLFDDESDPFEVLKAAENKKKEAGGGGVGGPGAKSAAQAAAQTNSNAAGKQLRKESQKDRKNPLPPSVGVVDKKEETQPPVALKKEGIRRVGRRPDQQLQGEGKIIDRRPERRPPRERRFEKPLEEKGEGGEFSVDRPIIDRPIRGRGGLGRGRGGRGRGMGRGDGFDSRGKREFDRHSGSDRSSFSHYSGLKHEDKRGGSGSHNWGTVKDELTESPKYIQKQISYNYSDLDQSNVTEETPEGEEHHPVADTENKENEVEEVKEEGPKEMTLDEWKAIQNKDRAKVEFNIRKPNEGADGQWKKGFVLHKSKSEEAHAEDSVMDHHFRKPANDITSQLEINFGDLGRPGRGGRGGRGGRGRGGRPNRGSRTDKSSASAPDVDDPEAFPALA
UniProt P60468, whole entry, looked up: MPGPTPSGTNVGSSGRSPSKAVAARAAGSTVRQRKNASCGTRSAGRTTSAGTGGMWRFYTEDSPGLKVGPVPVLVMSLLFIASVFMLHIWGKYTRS

Some of the results follow.

Compound in one test: C1=CC2=NC=CN=C2C=C1/C=C/3\C(=O)NC(=O)S3
Nature of the test: log2 fold change, soluble protein after heating vs DMSO (PISA); higher = thermal stabilisation; K562 cells, 10 uM, 30 min; active = over 0.2 and 3.5 SD of the protein, either way, in both replicates (recomputed). A digest of the protocol:
(§1)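 K562 cells (2×10^6 cells/mL) were treated with 10 μM compound for 30 min, and aliquots were heated for 3 min over 48°C-58°C. Pooled aliquots were extracted in PBS with 0.5% NP-40 at 4°C, and the supernatant after 21,000xg for 90 min was measured by TMTpro 16plex LC-MS/MS with channel sums equalised. Reported thermal stability, relative to control samples and from duplicates, is a log2 fold change.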
Turning to SF3A1 (UniProt Q15459), the log2 fold change is inactive: 0.051.
Same read-out and setting: the result for SERPINI1 (UniProt Q99574) reads inactive: 0.027.
Still for that read-out and setting: the result for SGTA (UniProt O43765) reads inactive: 0.045; that for SF3B4 (UniProt Q15427), inactive: 0.079.
On to SF3B1 (UniProt O75533), for which the log2 fold change was inactive: 0.009.
With SFSWAP isoform 2 (UniProt Q12872), the log2 fold change is inactive: 0.024.
As for SENP6 (UniProt Q9GZR1), the log2 fold change is inactive: 0.08.
On to SEMA4C (UniProt Q9C0C4), for which the log2 fold change is inactive: 0.061.
Same read-out and setting: the result for SIRT6 (UniProt Q8N6T7) reads inactive: -0.301.
For SERGEF (UniProt Q9UGK8), the log2 fold change is inactive: 0.028.
Still for that read-out and setting: the same measure for SERPINB8 (UniProt P50452): inactive: 0.047.
On the same count and under the same terms, the result for SF3A2 (UniProt Q15428) reads inactive: 0.063; that for SHMT1 (UniProt P34896), inactive: 0.009; that for SEPTIN9 (UniProt Q9UHD8), inactive: -0.001.
Still for that read-out and setting: the result for SEPTIN5 (UniProt Q99719) reads inactive: 0.019; that for SIDT2 isoform 2 (UniProt Q8NBJ9), inactive: 0.087.
Consider SH3BP5L (UniProt Q7L8J4), for which the log2 fold change is inactive: 0.072.
Regarding SERPINH1 (UniProt P50454), the log2 fold change was inactive: 0.
The same measure, in the same setting: the same measure for SF3B6 (UniProt Q9Y3B4): inactive: 0.023; for SEL1L (UniProt Q9UBV2): inactive: 0.096; for SFXN4 (UniProt Q6P4A7): inactive: 0.029.
Same read-out and setting: the same measure for SERPINA7 (UniProt P05543): inactive: -0.111; for SEPTIN6 (UniProt Q14141): inactive: 0.013; for SIRT1 (UniProt Q96EB6): inactive: -0.012.
Same read-out and setting: the same measure for SELENOH (UniProt Q8IZQ5): inactive: -0.002.
With SGTB (UniProt Q96EQ0), the log2 fold change is inactive: 0.092.
For the target SERBP1 isoform 3 (UniProt Q8NC51), the log2 fold change is inactive: 0.035.
With SIRT5 (UniProt Q9NXA8), the log2 fold change is inactive: 0.083.
Same read-out and setting: the same measure for SELENOF (UniProt O60613): inactive: 0.018; for SEPTIN8 (UniProt Q92599): inactive: -0.01; for SEC61B (UniProt P60468): inactive: 0.059.
On to SGF29 (UniProt Q96ES7), for which the log2 fold change was inactive: -0.03.

Compound in a further test: C1=CC=C(C=C1)C2=NC(=C(N2)C3=CC=NC=C3)C4=CC(=C(C=C4)Cl)O
Described as above. A digest of the protocol: as §1
As for SF3A1 (UniProt Q15459), the log2 fold change is inactive: 0.033.
Consider SERPINI1 (UniProt Q99574), for which the log2 fold change was inactive: 0.017.
On the same count and under the same terms, the same measure for SGTA (UniProt O43765): inactive: 0.02; for SF3B4 (UniProt Q15427): inactive: 0.027; for SF3B1 (UniProt O75533): inactive: 0.008.
Same read-out and setting: the same measure for SFSWAP isoform 2 (UniProt Q12872): inactive: -0.079; for SENP6 (UniProt Q9GZR1): inactive: -0.011.
Consider SEMA4C (UniProt Q9C0C4), for which the log2 fold change was inactive: -0.107.
As to SIRT6 (UniProt Q8N6T7), the log2 fold change is inactive: -0.019.
Take SERGEF (UniProt Q9UGK8): the log2 fold change was inactive: 0.241.
On the same count and under the same terms, the same measure for SERPINB8 (UniProt P50452): inactive: -0.004; for SF3A2 (UniProt Q15428): inactive: -0.016; for SHMT1 (UniProt P34896): inactive: 0.034.
Still for that read-out and setting: the same measure for SEPTIN9 (UniProt Q9UHD8): inactive: 0.045.
The same measure, in the same setting: the result for SEPTIN5 (UniProt Q99719) reads inactive: -0.011.
Turning to SIDT2 isoform 2 (UniProt Q8NBJ9), the log2 fold change was inactive: -0.053.
On the same count and under the same terms, the result for SH3BP5L (UniProt Q7L8J4) reads inactive: 0.067; that for SERPINH1 (UniProt P50454), inactive: 0.016; that for SF3B6 (UniProt Q9Y3B4), inactive: 0.005.
Still for that read-out and setting: the result for SEL1L (UniProt Q9UBV2) reads inactive: 0.028; that for SFXN4 (UniProt Q6P4A7), inactive: 0.014.
On the same count and under the same terms, the result for SERPINA7 (UniProt P05543) reads inactive: -0.004; that for SEPTIN6 (UniProt Q14141), inactive: -0.032; that for SIRT1 (UniProt Q96EB6), inactive: -0.02.
In the case of SELENOH (UniProt Q8IZQ5), the log2 fold change was inactive: 0.034.
Same read-out and setting: the result for SGTB (UniProt Q96EQ0) reads inactive: -0.015; that for SERBP1 isoform 3 (UniProt Q8NC51), inactive: -0.027; that for SIRT5 (UniProt Q9NXA8), inactive: -0.123.
As for SELENOF (UniProt O60613), the log2 fold change is inactive: -0.011.
The same measure, in the same setting: the result for SEPTIN8 (UniProt Q92599) reads inactive: 0.02.
On the same count and under the same terms, the result for SEC61B (UniProt P60468) reads inactive: -0.016; that for SGF29 (UniProt Q96ES7), inactive: 0.016.

Compound in another test: C1=CC=C2C(=C1)C3=NNC4=CC=CC(=C43)C2=O
The description is as above. A digest of the protocol: as §1
On to SF3A1 (UniProt Q15459), for which the log2 fold change is inactive: -0.052.
Same read-out and setting: the result for SERPINI1 (UniProt Q99574) reads inactive: 0.026.
The same measure, in the same setting: the result for SGTA (UniProt O43765) reads inactive: 0.011.
Turning to SF3B4 (UniProt Q15427), the log2 fold change was inactive: -0.007.
On the same count and under the same terms, the same measure for SF3B1 (UniProt O75533): inactive: -0.019; for SFSWAP isoform 2 (UniProt Q12872): inactive: -0.072; for SENP6 (UniProt Q9GZR1): inactive: -0.078.
Take SEMA4C (UniProt Q9C0C4): the log2 fold change was inactive: -0.089.
Same read-out and setting: the same measure for SIRT6 (UniProt Q8N6T7): inactive: 0.019; for SERGEF (UniProt Q9UGK8): inactive: 0.071.
For the target SERPINB8 (UniProt P50452), the log2 fold change is inactive: -0.039.
On to SF3A2 (UniProt Q15428), for which the log2 fold change is inactive: -0.117.
In the case of SHMT1 (UniProt P34896), the log2 fold change was inactive: -0.001.
On the same count and under the same terms, the result for SEPTIN9 (UniProt Q9UHD8) reads inactive: 0.081; that for SEPTIN5 (UniProt Q99719), inactive: 0.015.
Same read-out and setting: the same measure for SIDT2 isoform 2 (UniProt Q8NBJ9): inactive: 0.038; for SH3BP5L (UniProt Q7L8J4): inactive: 0.027.
As for SERPINH1 (UniProt P50454), the log2 fold change is inactive: 0.009.
Same read-out and setting: the result for SF3B6 (UniProt Q9Y3B4) reads inactive: -0.063; that for SEL1L (UniProt Q9UBV2), inactive: -0.03.
On the same count and under the same terms, the same measure for SFXN4 (UniProt Q6P4A7): inactive: 0.017; for SERPINA7 (UniProt P05543): inactive: -0.072; for SEPTIN6 (UniProt Q14141): inactive: -0.014.
The same measure, in the same setting: the result for SIRT1 (UniProt Q96EB6) reads inactive: -0.004; that for SELENOH (UniProt Q8IZQ5), inactive: 0.003; that for SGTB (UniProt Q96EQ0), inactive: -0.017.
As to SERBP1 isoform 3 (UniProt Q8NC51), the log2 fold change is inactive: -0.049.
Still for that read-out and setting: the result for SIRT5 (UniProt Q9NXA8) reads inactive: 0.036.
Same read-out and setting: the result for SELENOF (UniProt O60613) reads inactive: 0.037.
On the same count and under the same terms, the result for SEPTIN8 (UniProt Q92599) reads inactive: 0.022; that for SEC61B (UniProt P60468), inactive: -0.051; that for SGF29 (UniProt Q96ES7), inactive: 0.035.
